Results are given in words; binding and its absence hold for the method and conditions named. Binding seen in cells or lysates may run through a third protein. A yes stands for co-enrichment or nearness to the bait. Other partners may have been found.
B1: Claudin-7 (protein, UniProt Q9Z1L1 1-211)
chain: MANSGLQLLGFSMAMLGWVGLIASTAIPQWQMSSYAGDNIITAQAMYKGLWMECVTQSTGMMSCKMYDSVLALPAATQATRALMIVSLVLGFLAMFVATMGMKCTRCGGDDKVKKARIAMTGGIIFIVAGLAALVACSWIGHQIVTDFYNPLTPMNIKYEFGPAIFIGWAGSALVLLGGALLSCSCPGSESKAAYRAPRSYPKSNSSKEYV
B2: Normal mucosa of esophagus-specific gene 1 protein (protein, UniProt Q5RK28 1-83)
chain: MGIFQRLMKNKELIPLAFFISAAATGASSFALYALKKTDVVIDRKRNPEPWETVDPTQPQKLLTINQEWKPVEELQRVRRATR
B3: Mitochondrial glutamate carrier 1 (protein, UniProt A0A0G2K5L2 1-323)
chain: MADKQISLPAKLINGGIAGLIGVTCVFPIDLAKTRLQNQQNGQRMYASMSDCLIKTIRSEGYFGMYRGAAVNLTLVTPEKAIKLAANDFFRHQLSKDGQKLTLPKEMLAGCGAGTCQVIVTTPMEMLKIQLQDAGRIAAQRKMLAAQAQLATQGGGQPSVEAPAAPRPTATQLTRDLLRNHGIAGLYKGLGATLLRDVPFSIVYFPLFANLNQLGRPSSEEKSPFYVSFLAGCVAGSAAAVAVNPCDVVKTRLQSLERGVNEDTYSGFLDCARKIWRHEGPSAFLKGAYCRALVIAPLFGIAQVVYFLGIAESLLGLLQEPQA
B4: D-beta-hydroxybutyrate dehydrogenase (protein, UniProt P29147 47-343)
chain: TSQADAASGKAVLVTGCDSGFGFSLAKHLHSKGFLVFAGCLLKDKGDAGVRELDSLKSDRLRTIQLNVCNSEEVEKAVETVRSGLKDPEKGMWGLVNNAGISTFGEVEFTSMETYKEVAEVNLWGTVRTTKSFLPLLRRAKGRVVNISSMLGRMANPARSPYCITKFGVEAFSDCLRYEMHPLGVKVSVVEPGNFIAATSLYSPERIQAIAKKMWDELPEVVRKDYGKKYFDEKIAKMETYCNSGSTDTSSVINAVTHALTAATPYTRYHPMDYYWWLRMQVMTHFPGAISDKIYIH
B5: 3-ketoacyl-CoA thiolase (protein, UniProt P13437 1-397)
chain: MALLRGVFIVAAKRTPFGAYGGLLKDFTATDLTEFAARAALSAGKVPPETIDSVIVGNVMQSSSDAAYLARHVGLRVGVPTETGALTLNRLCGSGFQSIVSGCQEICSKDAEVVLCGGTESMSQSPYSVRNVRFGTKFGLDLKLEDTLWAGLTDQHVKLPMGMTAENLAAKYNISREDCDRYALQSQQRWKAANEAGYFNEEMAPIEVKTKKGKQTMQVDEHARPQTTLEQLQNLPPVFKKEGTVTAGNASGMSDGAGVVIIASEDAVKKHNFTPLARVVGYFVSGCDPAIMGIGPVPAITGALKKAGLSLKDMDLIDVNEAFAPQFLAVQKSLDLDPSKTNVSGGAIALGHPLGGSGSRITAHLVHELRRRGGKYAVGSACIGGGQGISLIIQNTA
B6: Calcium-binding mitochondrial carrier protein Aralar1 (protein, UniProt F1LX07 1-676)
chain: MAVKVHTTKRGDPHELRNIFLQYASTEVDGEHYMTPEDFVQRYLGLYNDPNSNPKIVQLLAGVADQTKDGLISYQEFLAFESVLCAPDSMFIVAFQLFDKSGNGEVTFENVKEIFGQTIIHHHIPFNWDCEFIRLHFGHNRKKHLNYVEFTQFLQELQLEHARQAFALKDKSKSGMISGLDFSDVMVTIRSHMLTPFVEENLVSAAGGSTSHQVSFSYFNAFNSLLNNMELVRKIYSTLAGTRKDIEVTKEEFASAITYGVVTPINVGILYFINNVHISTGRLTLADIERIAPLAEGALPYNLAELQRQQSPGLGRPIWLQIAESAYRFTLGSVAGAVGATAVYPIDLVKTRMQNQRGTGSVVGELMYKNSFDCFKKVLRYEGFFGLYRGLIPQLIGVAPEKAIKLTVNDFVRDKFTRRDGSIPLPAEILAGGCAGGSQVIFTNPLEIVKIRLQVAGEITTGPRVSALNVLQDLGLFGLYKGAKACFLRDIPFSAIYFPVYAHCKLLLADENGHVGGINLLTAGAMAGVPAASLVTPADVIKTRLQVAARAGQTTYSGVIDCFRKILREEGPSAFWKGTAARVFRSSPQFGVTLVTYELLQRWFYIDFGGLKPSGSEPTPKSRIADLPPANPDHIGGYRLATATFAGIENKFGLYLPKFKSPGVAAAQPKVAAAAQ
B7: Staphylococcal nuclease domain-containing protein 1 (protein, UniProt Q66X93 1-909)
chain: MASAQSSGSSGGPAVPTVQRGIVKMVLSGCAIIVRGQPRGGPPPERQINLSNIRAGNLARRAAATQPDGKDTPDEPWAFPAREFLRKKLIGKEVCFTIENKTPQGREYGMIYLGKDTNGENIAESLVAEGLASRREGMRANNPEQNRLSECEEQAKASKKGMWSEGNGSHTIRDLKYTIENPRHFVDSHHQKPVNAIIEHVRDGSVVRALLLPDHYLVTVMLSGIKCPTFRRETDGSETPEPFAAEAKFFTESRLLQRDVQIILESCHNQNILGTILHPNGNITELLLKEGFARCVDWSIAVYTRGAEKLRAAERFAKERRLRIWRDYVPPTANLDQKDKQFVAKVMQVLNADAIVVKLNSGDYKTIHLSSIRPPRLEGDNIQDKNKKLRPLYDIPYMFEAREFLRKKLIGKKVSVTVDYIRPASPATETVPAFSERTCATVTIGGINIAEALVSKGLATVIRYRQDDDQRSSHYDELLAAEARAIKNGKGLHSKKEVPIHRVADISGDTQKAKQFLPFLQRAGRSEAVVEYVFSGSRLKLYLPKETCLITFLLAGIECPRGARNLPGLVQEGEPFSEEATLFTKELVLQREVEVEVESMDKAGNFIGWLHMDGANLSVLLVEHALSKVHFTAERSAYYKPLLSAEEAAKQRKEKVWAHYEEQPVEEVMPVLEEKERSASYKPVFVTEITDDLHFYVQDVETGTQLEKLMENMRSDISSHPPVEGAYAPRRGEFCIAKFVDGEWYRARVEKVESPAKVHVFYIDYGNREILPSTRLGALPPAFSTRVLPAQATEYAFAFIQVPQDEDARTDAVDSVVRDIQNTQCLLNVEHLSASCPHVTLQFADSKGDVGLGLVKEGLVMVEVRKEKQFQKVITEYLNAQESAKSARLNLWRYGDFRADDADEFGYSR
B8: RNA polymerase II-associated protein 2 (protein, UniProt Q5I0E6 1-609)
chain: MADSAVPYSLGPSARASSTHRVATGTKQTSALKRRDASKRQAELEAALQRKVESERRAVRLVEQLLEENITEEFLKECGMFITPAHYSDVVDERAIIKLCGYPLCQKKLGVIPKQKYRISTKTNKVYDITERKSFCSNFCYKASKFFEAQIPKTPVWVREEERPPEFQLLKKGQSGCSGEVVQFFRDAVTAADVDAYGAFDAQCEPASSSTWSERASDERASDEEGPGFVSSLLPGNRPKAVGTKPQPHRQSSTVKKKAAQKMTSKHGEQTVSEVTEQLSNCRLDSQEKVATCKLPAKKENTQISSPGPLCDRLNTSTVSENKHSVSQVTLVGISKKSAEHFRSKFAKSNPGSGSASGLVQVRPEVAKANLLRVLKDTLTEWKTDETLKFLYGQDHGSVCLQPSAASGPDEELDEDDISCQAQNTLDETLPFRGSDTAIKPLPSYESLKKETEMLNLRVREFYRGRCVLNEDSTKSQDSKENELQRDPSFPLIDSSSQNQIRRRIVLEKLSKVLPGLLGPLQITMGDIYTELKNLVQTFRLSNRNIIHKPVEWTLIAVVLLSLLTPILGIQKHSPKNVVFTQFIATLLTELHLKCEDLENLAMIFRTSC
B9: claudin-2 (protein, UniProt P57739 1-230)
chain: MASLGLQLVGYILGLLGLLGTLVAMLLPSWKTSSYVGASIVTAVGFSKGLWMECATHSTGITQCDIYSTLLGLPADIQAAQAMMVTSSAISSLACIISVVGMRCTVFCQESRAKDRVAVAGGVFFILGGLLGFIPVAWNLHGILRDFYSPLVPDSMKFEIGEALYLGIISSLFSLIAGIILCFSCSSQRNRSNYYDAYQAQPLATRSSPRPGQPPKVKSEFNSYSLTGYV
B10: claudin-6 (protein, UniProt P56747 1-220)
chain: MASAGMQILGVVLTLLGWVNGLVSCALPMWKVTAFIGNSIVVAQVVWEGLWMSCVVQSTGQMQCKVYDSLLALPQDLQAARALCVIALLVALFGLLVYLAGAKCTTCVEEKDSKARLVLTSGIVFVISGVLTLIPVCWTAHAIIRDFYNPLVAEAQKRELGASLYLGWAASGLLLLGGGLLCCTCPSGGSQGPSHYMARYSTSAPAISRGPSEYPTKNYV

Protein sequences, listed by entry. Tags and fused reporters are not part of them. Residues count along the entry.
UniProt P01558, residues 116-319: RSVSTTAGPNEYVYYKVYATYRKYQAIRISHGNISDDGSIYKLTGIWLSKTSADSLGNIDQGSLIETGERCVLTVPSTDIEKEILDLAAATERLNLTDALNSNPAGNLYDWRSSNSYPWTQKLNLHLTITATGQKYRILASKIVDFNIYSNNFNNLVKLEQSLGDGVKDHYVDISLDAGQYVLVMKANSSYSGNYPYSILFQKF

Target: GST-CPE_(116–319) fusion protein (Clostridium perfringens) (UniProt P01558)
Assay: affinity purification with mass spectrometry; only the target purified

| Binder | binding |
| --- | --- |
| B1 | binds |
| B2 | binds |
| B3 | binds |
| B4 | binds |
| B5 | binds |
| B6 | binds |
| B7 | binds |
| B8 | binds |
| B9 | binds |
| B10 | binds |

From paper PMC2713237
